PMC2702278
Results are given in words; binding and its absence hold for the method and conditions named. Binding seen in cells or lysates may run through a third protein. Here binding means that the protein was enriched with, or labelled near, the bait; the list need not be complete.

Protein sequences, listed by entry. Tags and fused reporters are not part of them. Lines headed by an entry give the natural chain unless they say otherwise; changes in a name come on top.
UniProt Q96B97: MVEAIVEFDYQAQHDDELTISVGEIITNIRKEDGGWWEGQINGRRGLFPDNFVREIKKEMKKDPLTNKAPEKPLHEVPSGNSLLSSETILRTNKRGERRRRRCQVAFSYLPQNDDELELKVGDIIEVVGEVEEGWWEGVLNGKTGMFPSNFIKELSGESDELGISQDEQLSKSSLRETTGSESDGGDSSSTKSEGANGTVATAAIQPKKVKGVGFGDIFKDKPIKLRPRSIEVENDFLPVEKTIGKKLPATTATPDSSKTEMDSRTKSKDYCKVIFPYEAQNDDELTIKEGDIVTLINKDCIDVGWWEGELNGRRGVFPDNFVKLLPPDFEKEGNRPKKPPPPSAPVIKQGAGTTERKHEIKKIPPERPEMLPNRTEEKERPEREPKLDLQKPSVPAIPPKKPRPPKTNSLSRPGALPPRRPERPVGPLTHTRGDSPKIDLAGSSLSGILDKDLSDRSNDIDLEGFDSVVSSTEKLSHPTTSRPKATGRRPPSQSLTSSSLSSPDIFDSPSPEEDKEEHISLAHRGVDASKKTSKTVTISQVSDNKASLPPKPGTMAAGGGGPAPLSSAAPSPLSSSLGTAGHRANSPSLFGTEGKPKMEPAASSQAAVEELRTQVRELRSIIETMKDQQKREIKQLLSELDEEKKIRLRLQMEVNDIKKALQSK

Assays:
Assay in all cases: affinity purification with mass spectrometry; GST-fusion SH3 domain (about 10 μg on 40 μl Glutathione Sepharose 4B) incubated 4 h at 4°C with HeLa lysate pre-cleared on GST beads; 20 mM Tris pH 7.5, 150 mM NaCl, 5 mM EDTA, 5% glycerol, 0.5% Triton X-100 (washes 0.1%); SDS-PAGE, in-gel trypsin digestion, LC-MS/MS; hits also found with GST alone removed; only the target purified
[1] = target: GST-fusion SH3B domain of Ruk/CIN85 (UniProt Q96B97)
[2] = target: GST-fusion SH3C domain of Ruk/CIN85 (UniProt Q96B97)
[3] = target: GST-fusion SH3A domain of Ruk/CIN85 (UniProt Q96B97)

Measured: binding

B1: Tks4 (protein, UniProt A1X283 1-911)
chain: MPPRRSIVEVKVLDVQKRRVPNKHYVYIIRVTWSSGSTEAIYRRYSKFFDLQMQMLDKFPMEGGQKDPKQRIIPFLPGKILFRRSHIRDVAVKRLIPIDEYCKALIQLPPYISQCDEVLQFFETRPEDLNPPKEEHIGKKKSGGDQTSVDPMVLEQYVVVANYQKQESSEISLSVGQVVDIIEKNESGWWFVSTAEEQGWVPATCLEGQDGVQDEFSLQPEEEEKYTVIYPYTARDQDEMNLERGAVVEVIQKNLEGWWKIRYQGKEGWAPASYLKKNSGEPLPPKPGPGSPSHPGALDLDGVSRQQNAVGREKELLSSQRDGRFEGRPVPDGDAKQRSPKMRQRPPPRRDMTIPRGLNLPKPPIPPQVEEEYYTIAEFQTTIPDGISFQAGLKVEVIEKNLSGWWYIQIEDKEGWAPATFIDKYKKTSNASRPNFLAPLPHEVTQLRLGEAAALENNTGSEATGPSRPLPDAPHGVMDSGLPWSKDWKGSKDVLRKASSDMSASAGYEEISDPDMEEKPSLPPRKESIIKSEGELLERERERQRTEQLRGPTPKPPGVILPMMPAKHIPPARDSRRPEPKPDKSRLFQLKNDMGLECGHKVLAKEVKKPNLRPISKSKTDLPEEKPDATPQNPFLKSRPQVRPKPAPSPKTEPPQGEDQVDICNLRSKLRPAKSQDKSLLDGEGPQAVGGQDVAFSRSFLPGEGPGRAQDRTGKQDGLSPKEISCRAPPRPAKTTDPVSKSVPVPLQEAPQQRPVVPPRRPPPPKKTSSSSRPLPEVRGPQCEGHESRAAPTPGRALLVPPKAKPFLSNSLGGQDDTRGKGSLGPWGTGKIGENREKAAAASVPNADGLKDSLYVAVADFEGDKDTSSFQEGTVFEVREKNSSGWWFCQVLSGAPSWEGWIPSNYLRKKP
binds: all assays above

B2: Anillin (protein, UniProt Q9NQW6 1-1124)
chain: MDPFTEKLLERTRARRENLQRKMAERPTAAPRSMTHAKRARQPLSEASNQQPLSGGEEKSCTKPSPSKKRCSDNTEVEVSNLENKQPVESTSAKSCSPSPVSPQVQPQAADTISDSVAVPASLLGMRRGLNSRLEATAASSVKTRMQKLAEQRRRWDNDDMTDDIPESSLFSPMPSEEKAASPPRPLLSNASATPVGRRGRLANLAATICSWEDDVNHSFAKQNSVQEQPGTACLSKFSSASGASARINSSSVKQEATFCSQRDGDASLNKALSSSADDASLVNASISSSVKATSPVKSTTSITDAKSCEGQNPELLPKTPISPLKTGVSKPIVKSTLSQTVPSKGELSREICLQSQSKDKSTTPGGTGIKPFLERFGERCQEHSKESPARSTPHRTPIITPNTKAIQERLFKQDTSSSTTHLAQQLKQERQKELACLRGRFDKGNIWSAEKGGNSKSKQLETKQETHCQSTPLKKHQGVSKTQSLPVTEKVTENQIPAKNSSTEPKGFTECEMTKSSPLKITLFLEEDKSLKVTSDPKVEQKIEVIREIEMSVDDDDINSSKVINDLFSDVLEEGELDMEKSQEEMDQALAESSEEQEDALNISSMSLLAPLAQTVGVVSPESLVSTPRLELKDTSRSDESPKPGKFQRTRVPRAESGDSLGSEDRDLLYSIDAYRSQRFKETERPSIKQVIVRKEDVTSKLDEKNNAFPCQVNIKQKMQELNNEINMQQTVIYQASQALNCCVDEEHGKGSLEEAEAERLLLIATGKRTLLIDELNKLKNEGPQRKNKASPQSEFMPSKGSVTLSEIRLPLKADFVCSTVQKPDAANYYYLIILKAGAENMVATPLASTSNSLNGDALTFTTTFTLQDVSNDFEINIEVYSLVQKKDPSGLDKKKKTSKSKAITPKRLLTSITTKSNIHSSVMASPGGLSAVRTSNFALVGSYTLSLSSVGNTKFVLDKVPFLSSLEGHIYLKIKCQVNSSVEERGFLTIFEDVSGFGAWHRRWCVLSGNCISYWTYPDDEKRKNPIGRINLANCTSRQIEPANREFCARRNTFELITVRPQREDDRETLVSQCRDTLCVTKNWLSADTKEERDLWMQKLNQVLVDIRLWQPDACYKPIGKP
binds: all assays above

B3: Palmdelphin (protein, UniProt Q9NP74 1-551)
chain: MEEAELVKGRLQAITDKRKIQEEISQKRLKIEEDKLKHQHLKKKALREKWLLDGISSGKEQEEMKKQNQQDQHQIQVLEQSILRLEKEIQDLEKAELQISTKEEAILKKLKSIERTTEDIIRSVKVEREERAEESIEDIYANIPDLPKSYIPSRLRKEINEEKEDDEQNRKALYAMEIKVEKDLKTGESTVLSSIPLPSDDFKGTGIKVYDDGQKSVYAVSSNHSAAYNGTDGLAPVEVEELLRQASERNSKSPTEYHEPVYANPFYRPTTPQRETVTPGPNFQERIKIKTNGLGIGVNESIHNMGNGLSEERGNNFNHISPIPPVPHPRSVIQQAEEKLHTPQKRLMTPWEESNVMQDKDAPSPKPRLSPRETIFGKSEHQNSSPTCQEDEEDVRYNIVHSLPPDINDTEPVTMIFMGYQQAEDSEEDKKFLTGYDGIIHAELVVIDDEEEEDEGEAEKPSYHPIAPHSQVYQPAKPTPLPRKRSEASPHENTNHKSPHKNSISLKEQEESLGSPVHHSPFDAQTTGDGTEDPSLTALRMRMAKLGKKVI
binds: all assays above

B4: LL5β (protein, UniProt Q86SQ0 1-1253)
chain: MEEHSYIQKELDLQNGSLEEDSVVHSVENDSQNMMESLSPKKYSSSLRFKANGDYSGSYLTLSQPVPAKRSPSPLGTSVRSSPSLAKIQGSKQFSYDGTDKNIPMKPPTPLLNTTSSLSGYPLGRADFDHYTGRDSERALRLSEKPPYSKYSSRHKSHDNVYSLGGLEGRKASGSLLAMWNGSSLSDAGPPPISRSGAASMPSSPKQARKMSIQDSLALQPKLTRHKELASENINLRTRKYSSSSLSHMGAYSRSLPRLYRATENQLTPLSLPPRNSLGNSKRTKLGEKDLPHSVIDNDNYLNFSSLSSGALPYKTSASEGNPYVSSTLSVPASPRVARKMLLASTSSCASDDFDQASYVGTNPSHSLLAGESDRVFATRRNFSCGSVEFDEADLESLRQASGTPQPALRERKSSISSISGRDDLMDYHRRQREERLREQEMERLERQRLETILSLCAEYTKPDSRLSTGTTVEDVQKINKELEKLQLSDEESVFEEALMSPDTRYRCHRKDSLPDADLASCGSLSQSSASFFTPRSTRNDELLSDLTRTPPPPSSTFPKASSESSYLSILPKTPEGISEEQRSQELAAMEETRIVILNNLEELKQKIKDINDQMDESFRELDMECALLDGEQKSETTELMKEKEILDHLNRKIAELEKNIVGEKTKEKVKLDAEREKLERLQELYSEQKTQLDNCPESMREQLQQQLKRDADLLDVESKHFEDLEFQQLEHESRLDEEKENLTQQLLREVAEYQRNIVSRKEKISALKKQANHIVQQAQREQDHFVKEKNNLIMMLQREKENLCNLEKKYSSLSGGKGFPVNPNTLKEGYISVNEINEPCGNSTNLSPSTQFPADADAVATEPATAVLASQPQSKEHFRSLEERKKQHKEGLYLSDTLPRKKTTSSISPHFSSATMGRSITPKAHLPLGQSNSCGSVLPPSLAAMAKDSESRRMLRGYNHQQMSEGHRQKSEFYNRTASESNVYLNSFHYPDHSYKDQAFDTLSLDSSDSMETSISACSPDNISSASTSNIARIEEMERLLKQAHAEKTRLLESREREMEAKKRALEEEKRRREILEKRLQEETSQRQKLIEKEVKIRERQRAQARPLTRYLPVRKEDFDLRSHVETAGHNIDTCYHVSITEKTCRGFLIKMGGKIKTWKKRWFVFDRNKRTFSYYADKHETKLKGVIYFQAIEEVYYDHLKNANKSPNPLLTFSVKTHDRIYYMVAPSPEAMRIWMDVIVTGAEGYTHFLL
binds: all assays above
